Measured values reported in patent US6852907.
These are yes or no findings as the source states them, for the method shown. Some binding calls cover weakened binding; strength is not graded here.

Chains of the proteins cited; added tags and fusions are not shown. Residues count along the entry.
UniProt P61823, residues 47-150: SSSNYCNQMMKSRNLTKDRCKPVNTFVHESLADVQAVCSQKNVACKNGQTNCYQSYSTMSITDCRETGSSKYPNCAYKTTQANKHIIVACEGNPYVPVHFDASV

Molecular target: CP66:6G:g5 protein tagged with Stag epitope (tomato leaf curl virus from New Delhi; E. coli phage M13)
Test: fluorescence staining of fixed protoplasts

S-protein coupled to FITC (from UniProt P61823 47-150)
binding: binds
